Consider 1 substance from patent publication US8273855.

This test deals with T1, Caspr (native, mouse brain) (mouse) (UniProt O54991).
T1 sequence (looked up): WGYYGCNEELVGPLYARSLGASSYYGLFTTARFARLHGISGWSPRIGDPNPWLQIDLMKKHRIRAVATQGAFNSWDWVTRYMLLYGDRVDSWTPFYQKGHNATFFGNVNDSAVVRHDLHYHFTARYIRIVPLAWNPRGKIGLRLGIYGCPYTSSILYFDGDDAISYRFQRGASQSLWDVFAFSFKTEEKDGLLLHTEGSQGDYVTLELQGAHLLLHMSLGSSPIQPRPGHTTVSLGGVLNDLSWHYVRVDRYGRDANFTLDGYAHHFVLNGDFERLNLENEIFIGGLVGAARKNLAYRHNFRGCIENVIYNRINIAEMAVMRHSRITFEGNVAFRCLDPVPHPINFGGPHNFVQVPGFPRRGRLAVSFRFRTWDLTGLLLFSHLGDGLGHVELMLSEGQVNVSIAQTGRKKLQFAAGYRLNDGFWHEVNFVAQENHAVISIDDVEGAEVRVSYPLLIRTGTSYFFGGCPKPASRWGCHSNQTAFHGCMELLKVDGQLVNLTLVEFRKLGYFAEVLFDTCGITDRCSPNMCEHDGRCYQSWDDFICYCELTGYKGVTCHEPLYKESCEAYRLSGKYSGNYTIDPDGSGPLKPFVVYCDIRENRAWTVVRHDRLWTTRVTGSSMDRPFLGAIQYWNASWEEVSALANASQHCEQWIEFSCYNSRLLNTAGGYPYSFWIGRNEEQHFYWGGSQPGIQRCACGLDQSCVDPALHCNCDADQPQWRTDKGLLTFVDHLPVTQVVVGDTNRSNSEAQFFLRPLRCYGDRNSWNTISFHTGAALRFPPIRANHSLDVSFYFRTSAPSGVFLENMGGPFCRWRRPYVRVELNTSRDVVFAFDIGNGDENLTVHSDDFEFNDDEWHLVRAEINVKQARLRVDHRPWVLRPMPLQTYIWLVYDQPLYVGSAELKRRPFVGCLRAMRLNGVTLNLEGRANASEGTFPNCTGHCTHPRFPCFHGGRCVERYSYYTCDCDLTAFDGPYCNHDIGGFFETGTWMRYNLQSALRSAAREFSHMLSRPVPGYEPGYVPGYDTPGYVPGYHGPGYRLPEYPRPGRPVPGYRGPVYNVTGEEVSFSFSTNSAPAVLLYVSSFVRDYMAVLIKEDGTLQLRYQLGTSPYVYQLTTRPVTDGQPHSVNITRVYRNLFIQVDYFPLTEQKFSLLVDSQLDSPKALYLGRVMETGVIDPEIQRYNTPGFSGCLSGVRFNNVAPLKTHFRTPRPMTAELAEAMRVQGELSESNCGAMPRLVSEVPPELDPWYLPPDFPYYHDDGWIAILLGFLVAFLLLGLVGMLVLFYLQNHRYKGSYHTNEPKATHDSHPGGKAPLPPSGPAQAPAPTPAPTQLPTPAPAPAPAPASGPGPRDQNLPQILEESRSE
Nature of the test: GST pull-down from adult mouse brain membrane extracts.

Results are given in words; binding and its absence hold for the method and conditions named. In cells and extracts the contact can be indirect. A result given as binding can be weak or reduced; the word gives no strength.

On to GST-Nogo-66, for which the binding entry is given as “binds”.
